Test results published in PubChem BioAssay AID504467 (National Center for Advancing Translational Sciences (NCATS), 2011).
The whole screen tested about 330,000 compounds, of which about 7,700 (2.3%) were called active. Inconclusive means that the source gave no clear call. Such entries were picked first, then a sample of the others. Calls come from the whole dose curve; as a rule, active = well fitted inhibition curve with a large enough effect; inconclusive = small, poorly fitted or top-dose-only effect, or effect the other way; inactive = flat fitted curve, though single readings scatter. A potency beside an inconclusive call is a rough fit, not a confirmed value.

experiment: qHTS screen for small molecules that inhibit ELG1-dependent DNA repair in human embryonic kidney (HEK293T) cells expressing luciferase-tagged ELG1; conditions: HEK293T ELG1-luciferase reporter, luminescence, 16 h, DNA damage induced by 5-fluorouridine; activity change, negative = inhibition: at 46.1 µM (top of the series); note: nearly all actives have a fitted effect of over 55% in size
In short: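 In this reporter screen, reduction of luminescence relative to DMSO vehicle indicated activity. Compounds and 5-fluorouridine were added together to 2,000 cells per well, incubated for 16 hr at 37 °C, then developed with ONE-Glo.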
% is set by controls: 0 for no effect and ±100 for the full control effect; potency is the fitted concentration of half-maximal effect.

Question: Which Potency does the source give for `COc1ccc(O)c(/C=N/NC(=S)Nc2cccnc2)c1` here?
Answer: inconclusive: 18.3 µM [inhibitor, single point]

Question: With `C=CCN1C(=O)C(Cc2ccccc2)S/C1=N/N=C/c1cccs1` (stereo unspecified) as the compound, how does the Potency read?
Answer: inconclusive: 20.6 µM [inhibitor, single point]

Question: Which “activity change, negative = inhibition” value does the source give for `Nc1ncnc(Oc2ccccc2F)c1[N+](=O)[O-]` here?
Answer: inactive: -9.96%

Question: With `C=C(C)CNC(=S)N/N=C(\C)c1cccc(NC(C)=O)c1` as the compound, how does the Potency read?
Answer: inconclusive: 20.6 µM [inhibitor, single point]

Question: Which Potency does the source give for `CC(=O)N(C)N(C)c1cc(C)nc(N)n1` here?
Answer: inconclusive: 29.1 µM [activator, single point]

Question: With `COc1cc2c(cc1OC)C(C)N(C(=O)c1sc(-c3cnccn3)nc1C)CC2` (stereo unspecified) as the compound, how does the Potency read?
Answer: inconclusive: 20.6 µM [inhibitor, single point]

Question: For `Cc1cccc(CCNS(=O)(=O)c2ccc3c(c2)NC(=O)CS3)c1`, which “activity change, negative = inhibition” value is on record?
Answer: inactive: 14.1%

Question: For `COc1cccc(CNCC2CCCO2)c1` (stereo unspecified), which Potency is on record?
Answer: inconclusive: 0.708 µM [activator, single point]

Question: For `O=C(NC(=O)c1cnccc1C(F)(F)F)Nc1ccccc1`, which “activity change, negative = inhibition” value is on record?
Answer: inactive: -29.2%

Question: With `COCc1cc([C@@H]2C[C@H]3CN(c4ccccc4)C(=O)[C@]34CCCN24)ccc1OC` as the compound, how does the Potency read?
Answer: active: 14.6 µM

Question: For `Cc1ccc(-c2cc(C(=O)N/N=C/c3ccccc3)n[nH]2)o1`, which Potency is on record?
Answer: inconclusive: 4.11 µM [activator, full curve, poor fit]

Question: Which Potency does the source give for `Cc1ccc(NC(=O)Cn2nnc(C(=O)NCc3cccs3)c2N)c(C)c1` here?
Answer: inconclusive: 18.3 µM [activator, single point]

Question: With `COc1cc(-c2nc3ccc(N4CCN(C)CC4)cc3[nH]2)cc(OC)c1OC` as the compound, how does the Potency read?
Answer: inconclusive: 14.6 µM [activator, partial curve]

Question: Which “activity change, negative = inhibition” value does the source give for `O=C(COc1ccc2c3c(c(=O)oc2c1)CCC3)Nc1ccc(CCO)cc1` here?
Answer: inactive: -7.93%

Question: Which Potency does the source give for `Cc1cc(Br)c(S(=O)(=O)NCc2ccncc2)cc1C` here?
Answer: inconclusive: 1.3 µM [inhibitor, partial curve]

Question: With `Cc1ccccc1C(=O)NC1CCCCCCC1` as the compound, how does the Potency read?
Answer: inconclusive: 8.2 µM [activator, partial curve]

Question: For `N=C1S/C(=C\c2ccc(-c3cccc(Cl)c3)o2)C(=O)N1c1nccs1`, which Potency is on record?
Answer: inconclusive: 6.51 µM [activator, single point]

Question: With `CC1CN(C(=O)CSc2nnc(NC(=O)NC(C)(C)C)s2)CC(C)O1` (stereo unspecified) as the compound, how does the “activity change, negative = inhibition” value read?
Answer: inactive: 14.9%

Question: Which Potency does the source give for `COc1ccc(-c2cc(C(=O)Nc3ccc(S(=O)(=O)Nc4onc(C)c4C)cc3)c3ccccc3n2)cc1OC` here?
Answer: inconclusive: 7.3 µM [activator, partial curve, poor fit]

Question: With `CCOc1ccccc1C(=O)Nc1ccccc1C(N)=O` as the compound, how does the “activity change, negative = inhibition” value read?
Answer: inactive: -10.6%

Question: With `CN(/N=C/c1cc(Cl)cc(Cl)c1O)C(=S)NC(C)(C)C` as the compound, how does the Potency read?
Answer: inconclusive: 25.9 µM [inhibitor, single point]

Question: With `COc1cccc(NC(=O)c2cccs2)c1` as the compound, how does the Potency read?
Answer: inconclusive: 14.6 µM [activator, partial curve]

Question: With `CCc1ccc(NC(=O)Cn2c3[n+](c4c(F)c(F)ccc42)CCCCC3)cc1` as the compound, how does the “activity change, negative = inhibition” value read?
Answer: inactive: 12.4%

Question: Which “activity change, negative = inhibition” value does the source give for `O=C(O)c1cc(NC(=S)NC(=O)C(c2ccccc2)c2ccccc2)ccc1Cl` here?
Answer: inactive: -10.3%

Question: For `COc1nc(NCc2cccnc2)nc(NC2CCCCC2)n1`, which Potency is on record?
Answer: inconclusive: 23.1 µM [activator, single point]

Question: For `CCOC(=O)Nc1cccc(OCC(=O)Nc2ccc(OC)cc2OC)c1`, which Potency is on record?
Answer: inconclusive: 23.1 µM [inhibitor, single point]

Question: For `C/C(=C\c1ccc2c(c1)OCO2)C(=O)c1c(C)cc(C)[nH]c1=O`, which “activity change, negative = inhibition” value is on record?
Answer: inactive: 4.42%

Question: For `Cc1occc1C(=O)NNC(=O)c1cccc(F)c1`, which Potency is on record?
Answer: inconclusive: 23.1 µM [activator, partial curve, poor fit]

Question: With `CC(C)c1ccccc1NC(=O)Cn1c(/C=C/c2ccccc2)nc2ccccc21` as the compound, how does the Potency read?
Answer: inconclusive: 23.1 µM [activator, partial curve]

Question: Which “activity change, negative = inhibition” value does the source give for `COc1ccc(OC)c(NC(=O)CN2C(=O)CSc3ccc(S(=O)(=O)N4CCCC4)cc32)c1` here?
Answer: inactive: -2.04%

Question: For `CCc1ccc2nc(NC(=O)C3CSC4(C)CCC(=O)N34)sc2c1` (stereo unspecified), which Potency is on record?
Answer: inconclusive: 25.9 µM [activator, single point]

Question: With `Cc1ccc2cc(CN(Cc3nnnn3Cc3ccco3)CC3CCCO3)c(=O)[nH]c2c1C` (stereo unspecified) as the compound, how does the Potency read?
Answer: inconclusive: 25.9 µM [inhibitor, single point]

Question: For `O=C(CN1CCCC1)N1c2ccccc2Sc2ccc(C(F)(F)F)cc21`, which “activity change, negative = inhibition” value is on record?
Answer: inactive: 11.8%

Question: With `Cc1sc2nc(C3CC3)nc(N3CCN(C(=O)c4ccc(F)cc4)CC3)c2c1C` as the compound, how does the Potency read?
Answer: inconclusive: 29.1 µM [inhibitor, single point]

Question: With `COC(=O)c1ccc(/C=C2/SC(=S)N(CCCC(=O)Nc3ccccn3)C2=O)cc1` as the compound, how does the Potency read?
Answer: inconclusive: 4.11 µM [inhibitor, partial curve, poor fit]

Question: Which “activity change, negative = inhibition” value does the source give for `CC(/C=C1\SC(=S)N(NC(=O)c2cccc(O)c2)C1=O)=C\c1ccccc1` here?
Answer: inactive: 17.8%

Question: Which Potency does the source give for `COc1cccc2cc(C(=O)OCC(=O)NC3CCCC(C)C3C)c(=O)oc12` (stereo unspecified) here?
Answer: inconclusive: 29.1 µM [inhibitor, single point]

Question: For `Cc1cc(C)c(NC(=O)CN(C)C(=O)CNC(=O)c2cccs2)c(C)c1`, which Potency is on record?
Answer: inconclusive: 6.51 µM [inhibitor, single point]

Question: Which Potency does the source give for `Cc1ccc(NC(=O)Cn2nnc(C(=O)Nc3ccc(F)c(Cl)c3)c2N)cc1` here?
Answer: inconclusive: 23.1 µM [activator, single point]

Question: Which Potency does the source give for `Cc1[nH]c2ccc(C(=O)NC3CCCC3)cc2c1C` here?
Answer: inconclusive: 20.6 µM [activator, single point]

Question: For `COc1ccc(CCNC(=O)COc2cc(O)c3c(c2)OC(C)(C)CC3=O)cc1`, which “activity change, negative = inhibition” value is on record?
Answer: inactive: -8.74%

Question: With `CCC(=O)N(CC)c1nc(-c2ccc(OC)cc2)cs1` as the compound, how does the Potency read?
Answer: inconclusive: 13 µM [activator, partial curve]

Question: With `O=C(Nc1cccc(NC(=O)c2ccc(-c3cccc(Br)c3)o2)c1)c1ccco1` as the compound, how does the Potency read?
Answer: active: 9.2 µM

Question: For `Cc1cc(N2CCC(C(=O)N3CCN(c4cccc(C)c4C)CC3)CC2)n2ncnc2n1`, which Potency is on record?
Answer: active: 20.6 µM

Question: With `COc1ccccc1C1NC(c2ccccc2OC)C(C)C(=O)C1C` (stereo unspecified) as the compound, how does the Potency read?
Answer: inconclusive: 23.1 µM [activator, partial curve, poor fit]

Question: With `COc1ccc(C(=O)N/N=C/c2ccccc2OC(=O)c2ccccc2)cc1` as the compound, how does the Potency read?
Answer: inconclusive: 9.2 µM [activator, partial curve]

Question: For `FC(F)Oc1ccc(NC(=S)NCc2ccccc2)cc1`, which “activity change, negative = inhibition” value is on record?
Answer: inactive: 9.41%

Question: With `COc1ccc(-c2nc3scc(-c4ccc(OC)c(OC)c4)c3c(=O)o2)cc1` as the compound, how does the “activity change, negative = inhibition” value read?
Answer: inactive: 30%

Question: With `COc1cc(NC(=O)CN2C(=O)C(c3ccccc3)=NC23CCCCCC3)cc(OC)c1` as the compound, how does the Potency read?
Answer: inconclusive: 29.1 µM [inhibitor, partial curve, poor fit]

Question: For `COc1ccccc1N1CCN(C(=O)/C=C/c2cccc([N+](=O)[O-])c2)CC1`, which Potency is on record?
Answer: inconclusive: 29.1 µM [inhibitor, single point]

Question: For `CS(=O)(=O)N1CCc2cc(S(=O)(=O)NCCNS(=O)(=O)c3ccc4c(c3)CCN4S(C)(=O)=O)ccc21`, which “activity change, negative = inhibition” value is on record?
Answer: inactive: -7.76%

Question: For `COc1ccc2c(-c3cccnc3)cc(=O)[nH]c2c1`, which Potency is on record?
Answer: inconclusive: 25.9 µM [inhibitor, single point]

Question: Which Potency does the source give for `COc1cc(Nc2ncnc(N)n2)cc(OC)c1OC` here?
Answer: inconclusive: 20.6 µM [activator, single point]

Question: For `Cc1cc(Cl)ccc1OCCCC(=O)N1CCCCC1`, which Potency is on record?
Answer: inconclusive: 13 µM [activator, partial curve]

Question: With `CCOc1cc(N2CCOCC2)c(OCC)cc1NC(=O)Cc1cccc(OC)c1` as the compound, how does the Potency read?
Answer: inconclusive: 16.4 µM [inhibitor, single point]

Question: With `COc1ccc(CCNC(=O)CSc2nc(O)c(CCC(C)C)c(=O)[nH]2)cc1OC` as the compound, how does the “activity change, negative = inhibition” value read?
Answer: inactive: 5.59%

Question: With `COc1ccc(C)cc1NC(=O)c1nnn(Cc2cccc(C(F)(F)F)c2)c1N` as the compound, how does the “activity change, negative = inhibition” value read?
Answer: inactive: -10.8%

Question: For `CCn1cc(CCCC(=O)NCc2ccccc2OC)c2ccccc21`, which Potency is on record?
Answer: inconclusive: 1.83 µM [inhibitor, partial curve, poor fit]

Question: With `COC(=O)C(/C=N/OCc1ccc([N+](=O)[O-])cc1)NC(=O)c1cccc(Cl)c1` (stereo unspecified) as the compound, how does the “activity change, negative = inhibition” value read?
Answer: inactive: -3.66%

Question: With `O=C(c1cc2ccccc2o1)N1CCN(S(=O)(=O)c2c(F)cccc2F)CC1` as the compound, how does the Potency read?
Answer: inconclusive: 29.1 µM [inhibitor, single point]

Question: Which “activity change, negative = inhibition” value does the source give for `CN1CCN(c2ccc([N+](=O)[O-])c(-n3nc(-c4ccccc4)c4ccccc4c3=O)c2)CC1` here?
Answer: inactive: 20.1%

Question: With `Cn1nc(C(F)(F)F)c(/C=N/OC(=O)c2ccccc2Cl)c1SCc1ccccc1Cl` as the compound, how does the Potency read?
Answer: active: 13 µM

Question: With `CC(/C=N/NC(=O)c1cccnc1)=C\c1ccccc1` as the compound, how does the Potency read?
Answer: inconclusive: 18.3 µM [activator, partial curve]

Question: Which Potency does the source give for `COc1cc(C2SCC(=O)N2CCCN(C)C)cc(OC)c1OC` (stereo unspecified) here?
Answer: inconclusive: 20.6 µM [activator, single point]

Question: For `C=C1CSc2nc(=O)c3c4c(sc3n21)CCC4`, which Potency is on record?
Answer: active: 20.6 µM

Question: Which Potency does the source give for `Cc1ccc(/C=C/C(=O)c2ccccc2O)cc1` here?
Answer: inconclusive: 18.3 µM [activator, partial curve]

Question: For `COc1ccc(CNC(=O)c2cccc(S(=O)(=O)N3CCN(C)CC3)c2)cc1`, which “activity change, negative = inhibition” value is on record?
Answer: inactive: 2.21%

Question: With `Cc1ccc(CN(C)C(=O)CSc2nnc3n2CCCCC3)c(C)c1` as the compound, how does the “activity change, negative = inhibition” value read?
Answer: inactive: 2.33%

Question: Which Potency does the source give for `CCc1ccc(NC(=S)Nc2cccc3cnccc23)cc1` here?
Answer: inconclusive: 20.6 µM [inhibitor, single point]

Question: Which Potency does the source give for `O=C(Nc1ccc(Cl)cc1)Nc1nnc(CSCc2ccccc2)s1` here?
Answer: inconclusive: 5.8 µM [inhibitor, partial curve]

Question: Which Potency does the source give for `CCOC(=O)C1=C(C)NC(C)=C(C(=O)OCC)C1C(=O)OCC(=O)NCc1ccccc1` here?
Answer: inconclusive: 23.1 µM [inhibitor, single point]
